PubChem BioAssay AID1508597 | Cure First, 2020
Shown is a random part of about 2,100 deposited reagents. 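Calls flag viability under 80% in either arm, not effects specific to rucaparib; the reference for percent is not stated.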 The record does not give: the 100% reference.

Test: 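Survival screen with siRNA in ovarian cancer cells derived from patients, with or without rucaparib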 (primary screen)
Cell system: human ovarian carcinoma lines grown from tumours: OCI-P5x (papillary serous) and OCI-C5x (clear cell)
Reagent: siRNA pool against human genes, 1.25 pmol siRNA per well
Time to read-out: 72 h or 96 h, depending on the cell culture
Conditions: rucaparib 20 µM (about IC30) or vehicle, present until read-out
Measured: 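ATP luminescence measured at 72 or 96 h according to the culture, then normalised and expressed as percent viability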
Direction: viability, normalised: higher = more viable cells remaining
Call rule: 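Active when normalised viability falls below 80 percent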
Meaning of the calls: active = viability under 80%; inactive = viability 80% or more

| gene | rucaparib or vehicle | cell line | technical replicate | viability, normalised (%) | outcome |
| --- | --- | --- | --- | --- | --- |
| CAMK1 (calcium/calmodulin dependent protein kinase I) | Rucaparib | OCI-C5x (clear cell) | 1 | 72.6 | active |
| CAMK1 (calcium/calmodulin dependent protein kinase I) | Rucaparib | OCI-C5x (clear cell) | 2 | 68.1 | active |
| CAMK1 (calcium/calmodulin dependent protein kinase I) | Rucaparib | OCI-C5x (clear cell) | 3 | 79 | active |
| CAMK1 (calcium/calmodulin dependent protein kinase I) | Rucaparib | OCI-P5x (serous) | 1 | 90 | inactive |
| CAMK1 (calcium/calmodulin dependent protein kinase I) | Rucaparib | OCI-P5x (serous) | 2 | 87.4 | inactive |
| CAMK1 (calcium/calmodulin dependent protein kinase I) | Rucaparib | OCI-P5x (serous) | 3 | 86.1 | inactive |
| CAMK1 (calcium/calmodulin dependent protein kinase I) | Vehicle | OCI-C5x (clear cell) | 1 | 60.2 | active |
| CAMK1 (calcium/calmodulin dependent protein kinase I) | Vehicle | OCI-C5x (clear cell) | 2 | 56.2 | active |
| CAMK1 (calcium/calmodulin dependent protein kinase I) | Vehicle | OCI-C5x (clear cell) | 3 | 69 | active |
| CAMK1 (calcium/calmodulin dependent protein kinase I) | Vehicle | OCI-P5x (serous) | 1 | 94.6 | inactive |
| CAMK1 (calcium/calmodulin dependent protein kinase I) | Vehicle | OCI-P5x (serous) | 2 | 99.4 | inactive |
| CAMK1 (calcium/calmodulin dependent protein kinase I) | Vehicle | OCI-P5x (serous) | 3 | 85.3 | inactive |
| CDC42BPA (CDC42 binding protein kinase alpha) | Rucaparib | OCI-C5x (clear cell) | 1 | 49 | active |
| CDC42BPA (CDC42 binding protein kinase alpha) | Rucaparib | OCI-C5x (clear cell) | 2 | 55.5 | active |
| CDC42BPA (CDC42 binding protein kinase alpha) | Rucaparib | OCI-C5x (clear cell) | 3 | 62.8 | active |
| CDC42BPA (CDC42 binding protein kinase alpha) | Rucaparib | OCI-P5x (serous) | 1 | 82 | inactive |
| CDC42BPA (CDC42 binding protein kinase alpha) | Rucaparib | OCI-P5x (serous) | 2 | 93.4 | inactive |
| CDC42BPA (CDC42 binding protein kinase alpha) | Rucaparib | OCI-P5x (serous) | 3 | 87.6 | inactive |
| CDC42BPA (CDC42 binding protein kinase alpha) | Vehicle | OCI-C5x (clear cell) | 1 | 60.8 | active |
| CDC42BPA (CDC42 binding protein kinase alpha) | Vehicle | OCI-C5x (clear cell) | 2 | 53.3 | active |
| CDC42BPA (CDC42 binding protein kinase alpha) | Vehicle | OCI-C5x (clear cell) | 3 | 51 | active |
| CDC42BPA (CDC42 binding protein kinase alpha) | Vehicle | OCI-P5x (serous) | 1 | 68.2 | active |
| CDC42BPA (CDC42 binding protein kinase alpha) | Vehicle | OCI-P5x (serous) | 2 | 65 | active |
| CDC42BPA (CDC42 binding protein kinase alpha) | Vehicle | OCI-P5x (serous) | 3 | 78.8 | active |
| PIK3C2G | Rucaparib | OCI-C5x (clear cell) | 1 | 39.4 | active |
| PIK3C2G | Rucaparib | OCI-C5x (clear cell) | 2 | 59.8 | active |
| PIK3C2G | Rucaparib | OCI-C5x (clear cell) | 3 | 47.1 | active |
| PIK3C2G | Rucaparib | OCI-P5x (serous) | 1 | 101 | inactive |
| PIK3C2G | Rucaparib | OCI-P5x (serous) | 2 | 94.5 | inactive |
| PIK3C2G | Rucaparib | OCI-P5x (serous) | 3 | 106 | inactive |
| PIK3C2G | Vehicle | OCI-C5x (clear cell) | 1 | 64.2 | active |
| PIK3C2G | Vehicle | OCI-C5x (clear cell) | 2 | 85.7 | inactive |
| PIK3C2G | Vehicle | OCI-C5x (clear cell) | 3 | 51.4 | active |
| PIK3C2G | Vehicle | OCI-P5x (serous) | 1 | 85.8 | inactive |
| PIK3C2G | Vehicle | OCI-P5x (serous) | 2 | 94 | inactive |
| PIK3C2G | Vehicle | OCI-P5x (serous) | 3 | 106 | inactive |

Copied from the listing, 10 entries:
| gene | rucaparib or vehicle | cell line | technical replicate | viability, normalised (%) | outcome |
| --- | --- | --- | --- | --- | --- |
| CDC42BPA (CDC42 binding protein kinase alpha) | Rucaparib | OCI-C5x (clear cell) | 2 | 55.5 | active |
| CDC42BPA (CDC42 binding protein kinase alpha) | Rucaparib | OCI-C5x (clear cell) | 3 | 62.8 | active |
| CDC42BPA (CDC42 binding protein kinase alpha) | Rucaparib | OCI-P5x (serous) | 1 | 82 | inactive |
| CDC42BPA (CDC42 binding protein kinase alpha) | Rucaparib | OCI-P5x (serous) | 2 | 93.4 | inactive |
| CDC42BPA (CDC42 binding protein kinase alpha) | Rucaparib | OCI-P5x (serous) | 3 | 87.6 | inactive |
| CDC42BPA (CDC42 binding protein kinase alpha) | Vehicle | OCI-C5x (clear cell) | 1 | 60.8 | active |
| CDC42BPA (CDC42 binding protein kinase alpha) | Vehicle | OCI-C5x (clear cell) | 2 | 53.3 | active |
| CDC42BPA (CDC42 binding protein kinase alpha) | Vehicle | OCI-C5x (clear cell) | 3 | 51 | active |
| CDC42BPA (CDC42 binding protein kinase alpha) | Vehicle | OCI-P5x (serous) | 1 | 68.2 | active |
| CDC42BPA (CDC42 binding protein kinase alpha) | Vehicle | OCI-P5x (serous) | 2 | 65 | active |

Further entries follow:
| gene | rucaparib or vehicle | cell line | technical replicate | viability, normalised (%) | outcome |
| --- | --- | --- | --- | --- | --- |
| CILK1 (ciliogenesis associated kinase 1) | Rucaparib | OCI-C5x (clear cell) | 1 | 44.7 | active |
| CILK1 (ciliogenesis associated kinase 1) | Rucaparib | OCI-C5x (clear cell) | 2 | 39.9 | active |
| CILK1 (ciliogenesis associated kinase 1) | Rucaparib | OCI-C5x (clear cell) | 3 | 32.8 | active |
| CILK1 (ciliogenesis associated kinase 1) | Rucaparib | OCI-P5x (serous) | 1 | 80.4 | inactive |
| CILK1 (ciliogenesis associated kinase 1) | Rucaparib | OCI-P5x (serous) | 2 | 53.2 | active |
| CILK1 (ciliogenesis associated kinase 1) | Rucaparib | OCI-P5x (serous) | 3 | 85.1 | inactive |
| CILK1 (ciliogenesis associated kinase 1) | Vehicle | OCI-C5x (clear cell) | 1 | 48 | active |
| CILK1 (ciliogenesis associated kinase 1) | Vehicle | OCI-C5x (clear cell) | 2 | 52.2 | active |
| CILK1 (ciliogenesis associated kinase 1) | Vehicle | OCI-C5x (clear cell) | 3 | 50.3 | active |
| CILK1 (ciliogenesis associated kinase 1) | Vehicle | OCI-P5x (serous) | 1 | 67.7 | active |
| CILK1 (ciliogenesis associated kinase 1) | Vehicle | OCI-P5x (serous) | 2 | 69.8 | active |
| CILK1 (ciliogenesis associated kinase 1) | Vehicle | OCI-P5x (serous) | 3 | 62.3 | active |
| CHD9 (chromodomain helicase DNA binding protein 9) | Rucaparib | OCI-C5x (clear cell) | 1 | 83.2 | inactive |
| CHD9 (chromodomain helicase DNA binding protein 9) | Rucaparib | OCI-C5x (clear cell) | 2 | 57.9 | active |
| CHD9 (chromodomain helicase DNA binding protein 9) | Rucaparib | OCI-C5x (clear cell) | 3 | 62.7 | active |
| CHD9 (chromodomain helicase DNA binding protein 9) | Rucaparib | OCI-P5x (serous) | 1 | 83.1 | inactive |
| CHD9 (chromodomain helicase DNA binding protein 9) | Rucaparib | OCI-P5x (serous) | 2 | 74.9 | active |
| CHD9 (chromodomain helicase DNA binding protein 9) | Rucaparib | OCI-P5x (serous) | 3 | 93.8 | inactive |
| CHD9 (chromodomain helicase DNA binding protein 9) | Vehicle | OCI-C5x (clear cell) | 1 | 60.7 | active |
| CHD9 (chromodomain helicase DNA binding protein 9) | Vehicle | OCI-C5x (clear cell) | 2 | 58 | active |
| CHD9 (chromodomain helicase DNA binding protein 9) | Vehicle | OCI-C5x (clear cell) | 3 | 63.4 | active |
| CHD9 (chromodomain helicase DNA binding protein 9) | Vehicle | OCI-P5x (serous) | 1 | 79.7 | active |
| CHD9 (chromodomain helicase DNA binding protein 9) | Vehicle | OCI-P5x (serous) | 2 | 91.4 | inactive |
| CHD9 (chromodomain helicase DNA binding protein 9) | Vehicle | OCI-P5x (serous) | 3 | 82 | inactive |
| MAST4 | Rucaparib | OCI-C5x (clear cell) | 1 | 56.9 | active |
| MAST4 | Rucaparib | OCI-C5x (clear cell) | 2 | 58.5 | active |
| MAST4 | Rucaparib | OCI-C5x (clear cell) | 3 | 71.6 | active |
| MAST4 | Rucaparib | OCI-P5x (serous) | 1 | 86 | inactive |
| MAST4 | Rucaparib | OCI-P5x (serous) | 2 | 73.9 | active |
| MAST4 | Rucaparib | OCI-P5x (serous) | 3 | 80.9 | inactive |
| MAST4 | Vehicle | OCI-C5x (clear cell) | 1 | 56.2 | active |
| MAST4 | Vehicle | OCI-C5x (clear cell) | 2 | 59.2 | active |
| MAST4 | Vehicle | OCI-C5x (clear cell) | 3 | 69.4 | active |
| MAST4 | Vehicle | OCI-P5x (serous) | 1 | 77 | active |
| MAST4 | Vehicle | OCI-P5x (serous) | 2 | 79.8 | active |
| MAST4 | Vehicle | OCI-P5x (serous) | 3 | 71.9 | active |
| CA14 (carbonic anhydrase 14) | Rucaparib | OCI-C5x (clear cell) | 1 | 60.4 | active |
| CA14 (carbonic anhydrase 14) | Rucaparib | OCI-C5x (clear cell) | 2 | 61.4 | active |
| CA14 (carbonic anhydrase 14) | Rucaparib | OCI-C5x (clear cell) | 3 | 54.9 | active |
| CA14 (carbonic anhydrase 14) | Rucaparib | OCI-P5x (serous) | 1 | 70.4 | active |
| CA14 (carbonic anhydrase 14) | Rucaparib | OCI-P5x (serous) | 2 | 64.8 | active |
| CA14 (carbonic anhydrase 14) | Rucaparib | OCI-P5x (serous) | 3 | 50.5 | active |
| CA14 (carbonic anhydrase 14) | Vehicle | OCI-C5x (clear cell) | 1 | 59.3 | active |
| CA14 (carbonic anhydrase 14) | Vehicle | OCI-C5x (clear cell) | 2 | 55.8 | active |
| CA14 (carbonic anhydrase 14) | Vehicle | OCI-C5x (clear cell) | 3 | 50.4 | active |
| CA14 (carbonic anhydrase 14) | Vehicle | OCI-P5x (serous) | 1 | 54.6 | active |
| CA14 (carbonic anhydrase 14) | Vehicle | OCI-P5x (serous) | 2 | 59 | active |
| CA14 (carbonic anhydrase 14) | Vehicle | OCI-P5x (serous) | 3 | 55.9 | active |
